These are yes or no findings as the source states them, for the method shown. In cells and extracts the contact can be indirect. Binding can be weak; no strength is given. Where a sequence is shown, tags or fusion partners need not be part of it.
How the values were obtained:
[1] = target: His-Halo-tagged MBD8, full-length (A. thaliana); assay: pull-down; His-Halo-MBD8 and LDL2-Strep co-expressed in E. coli; lysate on Ni-NTA agarose, 4°C, 1 h; 50 mM Tris-HCl pH 7.5, 500 mM NaCl; eluted with 300 mM imidazole; blots with anti-Strep and anti-Halo
[2] = target: MBD8 ΔC-terminal (the N-terminal 173 amino acids of MBD8) (A. thaliana); assay: as above

binding [1]: binds | binding [2]: binds
B1: Strep-tagged LDL2 (enzyme, UniProt Q9LID0 1-746)
chain: MNSPASDETAPRRNRRKVSRKNYDENAMDELIEKQLGGKAKKKYRTKQDLEKETETEALIALSVGFPIDELLEEEIRAGVVRELGGKEQNDYIVVRNHIVARWRGNVGIWLLKDQIRETVSSDFEHLISAAYDFLLFNGYINFGVSPLFAPYIPEEGTEGSVIVVGAGLAGLAAARQLLSFGFKVLVLEGRSRPGGRVYTQKMGGKDRFAAVELGGSVITGLHANPLGVLARQLSIPLHKVRDNCPLYNSEGVLVDKVADSNVEFGFNKLLDKVTEVREMMEGAAKKISLGEVLETLRVLYGVAKDSEERKLFDWHLANLEYANAGCLSNLSAAYWDQDDPYEMGGDHCFLAGGNWRLINALAEGLPIIYGKSVDTIKYGDGGVEVISGSQIFQADMILCTVPLGVLKKRSIKFEPELPRRKQAAIDRLGFGLLNKVAMLFPSVFWGDELDTFGCLNESSINRGEFFLFYAYHTVSGGPALVALVAGEAAQRFECTEPSVLLHRVLKKLRGIYGPKGVVVPDPIQTVCTRWGSDPLSYGSYSHVRVGSSGVDYDILAESVSNRLFFAGEATTRQHPATMHGAYLSGLREASKILHVANYLRSNLKKPVQRYSGVNINVLEDMFKRPDIAIGKLSFVFNPLTDDPKSFGLVRVCFDNFEEDPTNRLQLYTILSREQANKIKELDENSNESKLSCLMNTLGLKLMGANSVLDTGGALISVIANARRGRSRSHVVAGQCNLPLNPLHFN

— article PMC13157976
